Assay results: the supplement of paper PMC11732987, “Enantioselective OTUD7B fragment discovery through chemoproteomics screening and high-throughput optimisation” (Communications Chemistry, 2025)
The list shows a part of the results. The data scatter; read single values as rough.

Sequences of proteins named here, by UniProt entry; tags and fusion partners are left off. A change or cut given only in a name is not applied to a line headed by its entry. Residues count along the entry.
UniProt Q92973, 163-186: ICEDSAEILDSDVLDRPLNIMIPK
UniProt O14763: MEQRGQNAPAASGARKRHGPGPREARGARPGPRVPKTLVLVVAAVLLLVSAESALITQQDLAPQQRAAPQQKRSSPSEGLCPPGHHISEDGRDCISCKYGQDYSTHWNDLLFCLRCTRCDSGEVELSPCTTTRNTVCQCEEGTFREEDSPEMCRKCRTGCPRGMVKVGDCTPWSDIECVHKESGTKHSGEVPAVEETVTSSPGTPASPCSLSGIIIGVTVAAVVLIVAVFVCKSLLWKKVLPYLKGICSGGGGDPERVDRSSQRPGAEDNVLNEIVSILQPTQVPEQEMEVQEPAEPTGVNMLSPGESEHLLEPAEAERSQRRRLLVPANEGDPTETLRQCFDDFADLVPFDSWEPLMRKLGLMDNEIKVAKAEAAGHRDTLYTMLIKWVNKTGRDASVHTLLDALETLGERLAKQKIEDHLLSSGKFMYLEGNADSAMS
UniProt P19474, 456-475: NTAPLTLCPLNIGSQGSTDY
UniProt Q12933: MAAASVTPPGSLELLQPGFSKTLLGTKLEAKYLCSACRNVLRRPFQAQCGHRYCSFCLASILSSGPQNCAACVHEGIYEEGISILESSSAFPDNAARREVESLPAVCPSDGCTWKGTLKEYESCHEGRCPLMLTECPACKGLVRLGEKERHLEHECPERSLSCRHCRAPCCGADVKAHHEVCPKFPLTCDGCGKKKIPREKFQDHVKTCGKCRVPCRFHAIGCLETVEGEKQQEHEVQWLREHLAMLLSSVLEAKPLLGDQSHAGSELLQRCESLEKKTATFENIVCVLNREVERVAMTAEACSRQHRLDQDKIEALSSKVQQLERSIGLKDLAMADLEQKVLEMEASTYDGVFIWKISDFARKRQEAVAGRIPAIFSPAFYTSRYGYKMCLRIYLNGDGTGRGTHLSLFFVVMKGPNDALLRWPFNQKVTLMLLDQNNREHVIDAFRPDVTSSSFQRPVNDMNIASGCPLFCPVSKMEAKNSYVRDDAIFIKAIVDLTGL
UniProt Q9NWD8: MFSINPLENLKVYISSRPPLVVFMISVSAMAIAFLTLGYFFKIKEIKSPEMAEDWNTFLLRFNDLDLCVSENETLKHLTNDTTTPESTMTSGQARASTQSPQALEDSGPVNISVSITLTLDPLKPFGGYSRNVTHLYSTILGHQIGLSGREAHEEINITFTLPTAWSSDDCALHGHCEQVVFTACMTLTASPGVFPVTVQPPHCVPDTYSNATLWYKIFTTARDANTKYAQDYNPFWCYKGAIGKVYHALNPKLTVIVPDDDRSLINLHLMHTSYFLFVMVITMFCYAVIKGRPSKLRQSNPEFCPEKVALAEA
UniProt Q9Y4G6: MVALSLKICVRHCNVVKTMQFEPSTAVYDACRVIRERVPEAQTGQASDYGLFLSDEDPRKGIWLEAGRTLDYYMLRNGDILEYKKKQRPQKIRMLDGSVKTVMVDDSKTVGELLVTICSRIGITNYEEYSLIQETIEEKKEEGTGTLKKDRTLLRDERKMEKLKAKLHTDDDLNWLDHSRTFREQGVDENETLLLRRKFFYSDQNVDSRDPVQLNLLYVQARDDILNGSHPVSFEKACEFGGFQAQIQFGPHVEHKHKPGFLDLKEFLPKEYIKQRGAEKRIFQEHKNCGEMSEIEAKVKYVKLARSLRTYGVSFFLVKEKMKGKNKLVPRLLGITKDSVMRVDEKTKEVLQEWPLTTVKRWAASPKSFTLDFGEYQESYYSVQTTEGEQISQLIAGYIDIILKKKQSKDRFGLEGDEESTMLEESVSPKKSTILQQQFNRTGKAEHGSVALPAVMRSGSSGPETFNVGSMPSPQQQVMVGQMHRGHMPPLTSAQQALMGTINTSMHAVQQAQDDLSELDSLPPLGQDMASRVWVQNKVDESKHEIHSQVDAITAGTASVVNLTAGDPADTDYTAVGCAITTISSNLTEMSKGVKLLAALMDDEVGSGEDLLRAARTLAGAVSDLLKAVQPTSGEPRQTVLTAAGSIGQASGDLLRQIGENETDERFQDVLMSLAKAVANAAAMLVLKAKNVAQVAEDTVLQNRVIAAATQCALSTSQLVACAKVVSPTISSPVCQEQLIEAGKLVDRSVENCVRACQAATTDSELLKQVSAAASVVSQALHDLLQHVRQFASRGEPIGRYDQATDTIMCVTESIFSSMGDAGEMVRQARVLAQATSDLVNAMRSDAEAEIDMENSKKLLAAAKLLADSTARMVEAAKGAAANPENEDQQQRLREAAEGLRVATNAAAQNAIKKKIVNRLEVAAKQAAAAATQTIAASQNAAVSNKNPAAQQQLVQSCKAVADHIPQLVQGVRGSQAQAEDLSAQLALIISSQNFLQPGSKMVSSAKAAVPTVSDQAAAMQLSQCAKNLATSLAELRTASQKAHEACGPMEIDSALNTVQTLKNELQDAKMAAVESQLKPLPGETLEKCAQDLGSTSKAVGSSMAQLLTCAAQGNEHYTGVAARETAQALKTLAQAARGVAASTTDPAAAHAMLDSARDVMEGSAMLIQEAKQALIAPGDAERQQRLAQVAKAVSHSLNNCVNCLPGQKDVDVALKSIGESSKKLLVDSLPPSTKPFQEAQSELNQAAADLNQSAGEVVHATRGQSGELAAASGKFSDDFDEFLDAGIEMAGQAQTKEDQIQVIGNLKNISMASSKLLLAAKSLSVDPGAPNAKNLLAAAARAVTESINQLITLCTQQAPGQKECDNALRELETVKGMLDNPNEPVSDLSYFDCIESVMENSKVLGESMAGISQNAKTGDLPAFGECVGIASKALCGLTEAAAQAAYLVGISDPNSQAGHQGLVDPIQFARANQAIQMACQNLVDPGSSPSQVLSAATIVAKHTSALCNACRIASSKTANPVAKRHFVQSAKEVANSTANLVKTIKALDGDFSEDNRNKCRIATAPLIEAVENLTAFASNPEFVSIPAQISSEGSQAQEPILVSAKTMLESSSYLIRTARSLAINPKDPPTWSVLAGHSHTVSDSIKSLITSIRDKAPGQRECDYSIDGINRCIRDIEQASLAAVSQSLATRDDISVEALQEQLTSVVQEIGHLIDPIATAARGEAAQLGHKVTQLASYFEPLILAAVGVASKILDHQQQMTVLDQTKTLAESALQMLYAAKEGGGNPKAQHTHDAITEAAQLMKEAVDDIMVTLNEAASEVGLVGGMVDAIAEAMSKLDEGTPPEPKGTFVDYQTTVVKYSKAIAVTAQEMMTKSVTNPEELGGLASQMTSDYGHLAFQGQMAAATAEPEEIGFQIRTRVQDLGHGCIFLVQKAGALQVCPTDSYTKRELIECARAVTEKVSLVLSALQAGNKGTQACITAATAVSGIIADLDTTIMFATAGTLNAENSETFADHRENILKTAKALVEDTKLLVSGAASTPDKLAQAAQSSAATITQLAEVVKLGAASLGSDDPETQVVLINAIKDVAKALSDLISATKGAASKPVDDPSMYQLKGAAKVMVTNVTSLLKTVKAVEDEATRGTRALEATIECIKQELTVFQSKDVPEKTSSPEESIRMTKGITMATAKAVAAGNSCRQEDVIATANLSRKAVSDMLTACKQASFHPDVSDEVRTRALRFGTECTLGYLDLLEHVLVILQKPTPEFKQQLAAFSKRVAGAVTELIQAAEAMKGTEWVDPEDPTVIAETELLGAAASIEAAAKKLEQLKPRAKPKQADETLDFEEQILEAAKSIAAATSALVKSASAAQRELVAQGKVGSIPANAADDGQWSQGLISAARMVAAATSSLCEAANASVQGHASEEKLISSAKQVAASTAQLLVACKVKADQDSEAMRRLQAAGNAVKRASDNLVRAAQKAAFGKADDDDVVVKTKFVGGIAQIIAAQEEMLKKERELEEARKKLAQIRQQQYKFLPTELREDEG
UniProt Q6NUQ4: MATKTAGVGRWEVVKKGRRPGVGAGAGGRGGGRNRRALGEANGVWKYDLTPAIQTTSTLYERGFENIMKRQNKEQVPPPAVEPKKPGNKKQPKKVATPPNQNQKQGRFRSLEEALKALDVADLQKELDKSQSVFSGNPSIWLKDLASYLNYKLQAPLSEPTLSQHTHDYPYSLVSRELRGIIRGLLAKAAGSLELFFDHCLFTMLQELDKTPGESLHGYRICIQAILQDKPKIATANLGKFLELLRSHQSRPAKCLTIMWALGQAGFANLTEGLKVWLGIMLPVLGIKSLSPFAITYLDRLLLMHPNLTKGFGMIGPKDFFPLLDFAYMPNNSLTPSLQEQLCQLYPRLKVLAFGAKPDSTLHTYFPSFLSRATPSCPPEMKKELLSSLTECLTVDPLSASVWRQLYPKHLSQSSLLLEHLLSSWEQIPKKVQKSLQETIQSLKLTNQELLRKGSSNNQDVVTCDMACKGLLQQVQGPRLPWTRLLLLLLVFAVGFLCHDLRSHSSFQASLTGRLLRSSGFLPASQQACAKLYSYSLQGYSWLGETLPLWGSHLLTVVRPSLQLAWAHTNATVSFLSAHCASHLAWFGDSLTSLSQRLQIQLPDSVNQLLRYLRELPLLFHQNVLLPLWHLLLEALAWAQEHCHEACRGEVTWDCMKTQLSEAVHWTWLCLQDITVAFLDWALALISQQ
UniProt Q9Y5L0: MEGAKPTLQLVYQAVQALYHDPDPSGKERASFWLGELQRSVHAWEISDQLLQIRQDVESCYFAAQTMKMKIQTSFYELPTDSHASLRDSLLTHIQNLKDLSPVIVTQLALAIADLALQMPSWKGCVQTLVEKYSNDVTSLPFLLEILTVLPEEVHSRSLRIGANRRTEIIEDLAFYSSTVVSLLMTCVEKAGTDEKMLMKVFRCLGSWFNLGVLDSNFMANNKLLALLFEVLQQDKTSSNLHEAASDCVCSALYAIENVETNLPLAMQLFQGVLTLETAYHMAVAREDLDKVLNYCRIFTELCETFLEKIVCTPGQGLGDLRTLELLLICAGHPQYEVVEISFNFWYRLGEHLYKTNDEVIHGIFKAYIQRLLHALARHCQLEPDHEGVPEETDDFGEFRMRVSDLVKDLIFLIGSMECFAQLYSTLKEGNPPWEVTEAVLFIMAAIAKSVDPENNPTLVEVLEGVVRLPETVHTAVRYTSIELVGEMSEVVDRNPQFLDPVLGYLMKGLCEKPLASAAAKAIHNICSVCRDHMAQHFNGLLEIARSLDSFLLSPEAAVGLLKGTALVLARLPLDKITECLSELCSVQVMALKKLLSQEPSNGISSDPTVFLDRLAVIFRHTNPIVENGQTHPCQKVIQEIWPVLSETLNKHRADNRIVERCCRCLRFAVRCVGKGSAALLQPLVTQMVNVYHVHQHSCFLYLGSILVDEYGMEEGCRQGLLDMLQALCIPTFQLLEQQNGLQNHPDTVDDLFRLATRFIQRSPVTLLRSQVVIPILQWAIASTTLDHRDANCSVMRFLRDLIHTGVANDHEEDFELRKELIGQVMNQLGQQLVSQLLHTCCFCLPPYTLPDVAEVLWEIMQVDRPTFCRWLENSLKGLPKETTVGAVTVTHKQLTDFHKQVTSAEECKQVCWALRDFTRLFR
UniProt Q5SNT2: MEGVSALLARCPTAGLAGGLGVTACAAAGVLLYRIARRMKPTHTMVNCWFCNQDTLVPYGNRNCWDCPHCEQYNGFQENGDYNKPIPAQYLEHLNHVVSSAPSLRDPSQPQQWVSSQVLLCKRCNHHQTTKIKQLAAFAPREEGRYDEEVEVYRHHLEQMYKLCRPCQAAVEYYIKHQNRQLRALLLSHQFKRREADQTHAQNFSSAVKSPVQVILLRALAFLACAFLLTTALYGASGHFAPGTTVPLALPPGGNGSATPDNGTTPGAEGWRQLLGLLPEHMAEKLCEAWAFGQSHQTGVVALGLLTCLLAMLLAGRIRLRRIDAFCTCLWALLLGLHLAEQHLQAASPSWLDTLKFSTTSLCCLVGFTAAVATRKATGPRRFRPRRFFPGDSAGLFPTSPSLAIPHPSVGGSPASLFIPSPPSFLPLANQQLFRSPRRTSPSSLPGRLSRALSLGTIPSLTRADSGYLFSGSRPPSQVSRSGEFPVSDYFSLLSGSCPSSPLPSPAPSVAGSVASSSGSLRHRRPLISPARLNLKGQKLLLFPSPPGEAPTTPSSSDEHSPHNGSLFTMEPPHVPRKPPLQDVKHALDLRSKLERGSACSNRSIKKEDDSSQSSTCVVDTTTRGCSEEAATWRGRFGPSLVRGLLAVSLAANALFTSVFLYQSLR
UniProt Q12893: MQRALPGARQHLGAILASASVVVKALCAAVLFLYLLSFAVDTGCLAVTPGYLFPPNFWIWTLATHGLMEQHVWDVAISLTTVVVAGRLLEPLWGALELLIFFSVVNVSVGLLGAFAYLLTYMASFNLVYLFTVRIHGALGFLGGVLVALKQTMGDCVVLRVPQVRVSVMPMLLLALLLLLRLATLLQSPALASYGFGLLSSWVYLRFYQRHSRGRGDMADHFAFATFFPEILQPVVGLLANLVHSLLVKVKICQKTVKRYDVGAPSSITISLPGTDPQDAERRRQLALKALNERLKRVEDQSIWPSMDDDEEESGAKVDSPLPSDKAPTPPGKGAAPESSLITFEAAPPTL

These targets were tested with ClCC(=O)N[C@H]1CCCc2ccccc12 (assay: log2 mean competition ratio of IA-DTB cysteine labelling (DMSO/compound) (log2 ratio); higher = stronger cysteine engagement by compound). Settings: 50 µM; treatment time: 4 h; cell line lysate: HEK293T.
Protocol: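 IA-DTB competitive cysteine chemoproteomics in HEK293T RIPA lysate. Lysates were treated with compound 29 or 30 at 50 or 200 µM for 4 h, then IA-DTB (500 µM, 1 h), trypsin-digested, NeutrAvidin-enriched and analysed by diaPASEF. Competition ratio = intensity DMSO / intensity compound (n=4 treated, n=64 DMSO); binding: mean log2 CR ≥ 1 and p ≤ 0.05 plus QC filters. Target is the cysteine site.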

Row | Target | log2 mean competition ratio
1 | TRAP1 C261 (UniProt Q12931) | -0.136
2 | TRIM33 C849 | 0.346
3 | TNPO1 C164 (UniProt Q92973) | 0.15
4 | TOP3A C190 (UniProt Q13472) | -0.0511
5 | TNFRSF10B C248 (UniProt O14763) | -0.0501
6 | TPI1 C127 (UniProt P60174) | 0.0962
7 | TRAK1 C713 | 0.307
8 | TRIM3 C227 (UniProt O75382) | -0.495
9 | TRIM21 C463 (UniProt P19474) | -0.0925
10 | TJP2 C601 (UniProt Q9UDY2) | 0.263
11 | TRAF2 C124 (UniProt Q12933) | -0.136
12 | TMEM248 C305 (UniProt Q9NWD8) | -0.213
13 | TLN2 C289 (UniProt Q9Y4G6) | -0.402
14 | TM9SF2 C250 (UniProt Q99805) | -0.0754
15 | TMEM214 C377 (UniProt Q6NUQ4) | 0.0446
16 | TNPO3 C793 (UniProt Q9Y5L0) | 0.503
17 | TRIM56 C169 (UniProt Q9BRZ2) | 0.0277
18 | TNPO3 C303 (UniProt Q9Y5L0) | -0.242
19 | TMEM223 C156 (UniProt A0PJW6) | 0.345
20 | TMEM201 C626 (UniProt Q5SNT2) | 0.245

Same assay, conditions: 200 µM; treatment time: 4 h; cell line lysate: HEK293T

Row | Target | log2 mean competition ratio
21 | TRAP1 C261 (UniProt Q12931) | -0.0225
22 | TRIM33 C849 | 0.151
23 | TNPO1 C164 (UniProt Q92973) | 0.109
24 | TOP3A C190 (UniProt Q13472) | -0.1
25 | TNFRSF10B C248 (UniProt O14763) | -0.0281
26 | TPI1 C127 (UniProt P60174) | -0.108
27 | TRAK1 C713 | -0.00611
28 | TRIM3 C227 (UniProt O75382) | 0.216
29 | TRIM21 C463 (UniProt P19474) | -0.461
30 | TJP2 C601 (UniProt Q9UDY2) | -0.0722
31 | TRAF2 C124 (UniProt Q12933) | 0.0356
32 | TMEM248 C305 (UniProt Q9NWD8) | 0.236
33 | TLN2 C289 (UniProt Q9Y4G6) | -0.103
34 | TM9SF2 C250 (UniProt Q99805) | -0.0731
35 | TMEM214 C377 (UniProt Q6NUQ4) | 0.0124
36 | TNPO3 C793 (UniProt Q9Y5L0) | 1.19
37 | TRIM56 C169 (UniProt Q9BRZ2) | -0.24
38 | TNPO3 C303 (UniProt Q9Y5L0) | -0.0246
39 | TMEM115 C156 (UniProt Q12893) | 0.362
40 | TMEM223 C156 (UniProt A0PJW6) | 0.261
41 | TMEM201 C626 (UniProt Q5SNT2) | 0.322
